Data source: PubChem BioAssay AID504764 (Drosophila RNAi Screening Center, 2011)
The deposit covers about 22,000 reagents; this is an unselected part of those that have a named target and a result. In the full data, 403 (1.9%) were called active. 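Unnormalised raw counts per well; ratio z-scores behind the hit calls and whether each hit raises or lowers signal are not deposited.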 Unmarked entries are inactive. Not given: the amount of reagent.

- Screen: 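Knock-downs that raise or lower a Notch target reporter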 (primary screen)
- System: Drosophila Kc167 cells
- Reagent: long dsRNA against Drosophila genes
- Timing: about 5 days (4 days dsRNA, then 24 h after transfection)
- Treatment: transfection of constitutively active membrane-tethered Notch lacking the extracellular domain, read 24 h later
- Measured: 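Light from a Notch-responsive E(spl)m3 luciferase reporter under active Notch, with control-promoter and no-Notch reporter wells to normalise; raw counts from paired wells a and b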
- Reading the numbers: induced reporter light, run 1, well a and induced reporter light, run 1, well b: higher = more light from the Notch target reporter with active Notch; control promoter light, run 1, well a and control promoter light, run 1, well b: higher = more light from the viral control promoter (cell number, transfection, viability); uninduced reporter light, run 1, well a: higher = more light from the Notch target reporter without active Notch
- Call rule: 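Hit if the duplicate-averaged log2 ratio of induced to control-promoter light gives a plate-wise z beyond ±2, or induced to uninduced beyond ±1.8; weak-control or discordant-duplicate wells dropped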
- Meaning of the calls: active = modifier hit (raised or lowered Notch signal); inactive = not a hit

With y (yellow) [DRSC18853], what was measured?
induced reporter light, run 1, well a: 1.25e5; induced reporter light, run 1, well b: 1.30e5; control promoter light, run 1, well a: 1.93e5; control promoter light, run 1, well b: 2.71e5; uninduced reporter light, run 1, well a: 10400

With thoc6 [DRSC10528], what was measured?
induced reporter light, run 1, well a: 1.29e5; induced reporter light, run 1, well b: 94670; control promoter light, run 1, well a: 66635; control promoter light, run 1, well b: 34440; uninduced reporter light, run 1, well a: 8938

With Rrp1 (Recombination repair protein 1) [DRSC00784], what does the deposit list?
induced reporter light, run 1, well a: 3.00e5; induced reporter light, run 1, well b: 2.23e5; control promoter light, run 1, well a: 3.46e5; control promoter light, run 1, well b: 2.69e5; uninduced reporter light, run 1, well a: 16190

What is on record for pelo (pelota) [DRSC03588]?
induced reporter light, run 1, well a: 2.21e5; induced reporter light, run 1, well b: 2.18e5; control promoter light, run 1, well a: 2.30e5; control promoter light, run 1, well b: 2.01e5; uninduced reporter light, run 1, well a: 17470

How did the screen score CG7126 [DRSC16201]?
induced reporter light, run 1, well a: 1.60e5; induced reporter light, run 1, well b: 1.85e5; control promoter light, run 1, well a: 2.35e5; control promoter light, run 1, well b: 2.20e5; uninduced reporter light, run 1, well a: 12578

With CG14182 [DRSC10181], what was measured?
induced reporter light, run 1, well a: 1.23e5; induced reporter light, run 1, well b: 1.02e5; control promoter light, run 1, well a: 1.11e5; control promoter light, run 1, well b: 1.12e5; uninduced reporter light, run 1, well a: 9670

With ND-30 (NADH dehydrogenase (ubiquinone) 30 kDa subunit) [DRSC08243], how do the results read?
induced reporter light, run 1, well a: 73530; induced reporter light, run 1, well b: 73920; control promoter light, run 1, well a: 62965; control promoter light, run 1, well b: 21732; uninduced reporter light, run 1, well a: 5615

What did the screen give for heix (heixuedian) [DRSC03542]?
induced reporter light, run 1, well a: 1.59e5; induced reporter light, run 1, well b: 1.90e5; control promoter light, run 1, well a: 1.51e5; control promoter light, run 1, well b: 1.48e5; uninduced reporter light, run 1, well a: 14860

What did the screen give for Spindly [DRSC00430]?
induced reporter light, run 1, well a: 61345; induced reporter light, run 1, well b: 63215; control promoter light, run 1, well a: 78525; control promoter light, run 1, well b: 69975; uninduced reporter light, run 1, well a: 5445

For CG5498 [DRSC11608], what does the deposit list?
induced reporter light, run 1, well a: 90925; induced reporter light, run 1, well b: 96465; control promoter light, run 1, well a: 64795; control promoter light, run 1, well b: 96480; uninduced reporter light, run 1, well a: 8515

What did the screen give for stg (string) [DRSC17071]?
induced reporter light, run 1, well a: 14040; induced reporter light, run 1, well b: 12155; control promoter light, run 1, well a: 19600; control promoter light, run 1, well b: 17440; uninduced reporter light, run 1, well a: 1140

How did the screen score Bicra [DRSC14417]?
induced reporter light, run 1, well a: 47980; induced reporter light, run 1, well b: 45175; control promoter light, run 1, well a: 70110; control promoter light, run 1, well b: 83290; uninduced reporter light, run 1, well a: 7800
